# Primary screen of a compound library

Sequences of proteins named here, by UniProt entry; tags and fusion partners are left off.
UniProt E9BF75, entry or part of it: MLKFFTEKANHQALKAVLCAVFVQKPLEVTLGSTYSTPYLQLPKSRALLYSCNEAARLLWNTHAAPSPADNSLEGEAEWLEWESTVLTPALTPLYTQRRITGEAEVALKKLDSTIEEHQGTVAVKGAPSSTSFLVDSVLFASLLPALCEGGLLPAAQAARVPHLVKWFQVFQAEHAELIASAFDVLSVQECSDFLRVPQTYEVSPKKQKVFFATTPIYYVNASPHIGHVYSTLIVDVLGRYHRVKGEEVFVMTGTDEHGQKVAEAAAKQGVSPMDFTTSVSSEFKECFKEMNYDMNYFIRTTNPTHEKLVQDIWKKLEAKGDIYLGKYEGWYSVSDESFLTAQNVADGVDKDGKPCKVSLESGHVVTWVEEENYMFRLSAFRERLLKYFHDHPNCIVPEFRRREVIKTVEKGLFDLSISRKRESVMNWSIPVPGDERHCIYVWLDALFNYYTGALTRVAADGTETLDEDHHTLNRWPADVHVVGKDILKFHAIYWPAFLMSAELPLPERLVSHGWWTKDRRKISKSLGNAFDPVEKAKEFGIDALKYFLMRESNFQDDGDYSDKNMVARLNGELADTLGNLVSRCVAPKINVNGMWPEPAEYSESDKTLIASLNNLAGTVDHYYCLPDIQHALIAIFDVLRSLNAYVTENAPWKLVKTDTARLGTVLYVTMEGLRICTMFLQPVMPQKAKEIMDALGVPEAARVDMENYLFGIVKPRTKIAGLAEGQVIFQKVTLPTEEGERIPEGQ

The values are deposited in ChEMBL (CHEMBL3988442, “University of Dundee, Small-Polar-MMV Screening Library” (2021)).

Results are percentages, as filed.
The controls that fix the scale are not given in the record; negative values are as filed.
This is an unselected part of the compounds tested.
A dash means the value is not listed here; it may have been measured.

LdMetRS: 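Methionyl-tRNA synthetase (putative), Leishmania donovani (UniProt E9BF75). Primary screen of methionyl-tRNA synthetase; the read-out is not stated. The test concentration is not given. Values are per cent inhibition. About 68,000 compounds were tested under these conditions; 0.035% (about 24) showed 50% or more at least once.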
Mtb heat-shock: 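Assay on Mycobacterium tuberculosis, filed only as a heat shock assay from Cornell; the read-out is not stated. The concentration is filed as 10 mM, unlikely as a test dose, so the dose is not known. Higher reads as stronger inhibition (inferred: compounds with an IC50 in retests scored well above the rest). About 69,000 compounds were tested under these conditions; 1.4% (about 930) showed 50% or more at least once.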

structure,LdMetRS,Mtb heat-shock
[H][C@@]12C[C@H](C(=O)N3CCCC3)CN(CC3CC3)[C@]1([H])CCO2,-,-4.434%
Cc1cccc(C2CCCN2C(=O)CN(C)S(C)(=O)=O)c1C (stereo unspecified),12.85%,13.07%
O=C(O)C(F)(F)F.O=C(O)C(F)(F)F.[H][C@@]12CN(Cc3cccc(F)c3)C[C@]1([H])CN(Cc1c(C)noc1C)C2,-,1.076%
Cc1ccc(-c2nc(CN(Cc3cccs3)C3CCS(=O)(=O)C3)cs2)o1 (stereo unspecified),3.591%,-18.92%
O=C(OCC1CCN(c2ccccc2)C1)c1cscn1 (stereo unspecified),19.16%,8.605%
CN(C)C(=O)[C@@H]1CCO[C@@H]2CCN(CCc3ccccc3)C[C@@H]21,19.05%,-
O=C(c1ccoc1)N1CCc2c(COCc3ccncc3)cncc2C1,0%,-22.93%
Cc1ccc(C(=O)NS(=O)(=O)c2cc(Br)ccc2C)c(=O)[nH]1,14.53%,-18.61%
c1ccc(CCN2CCCC(Cn3ccnc3)C2)cc1 (stereo unspecified),8.591%,0.8146%
CC(C)c1nc(C2CCCN2Cc2nnc(C3CCC3)o2)no1 (stereo unspecified),0.9524%,-34.95%
Cc1cc(CN(C)C(=O)NCC2CCS(=O)(=O)C2)no1 (stereo unspecified),3.78%,14.52%
COc1cc(NCC(=O)NC(C)(C#N)C(C)C)cc(OC)c1OC (stereo unspecified),-1.003%,-4.476%
Cc1nc(-c2ccc(Cl)s2)sc1C(=O)NCCS(N)(=O)=O,8.571%,22.15%
Cc1cc(CN(C)C(=O)NCc2ccnc(OC3CCCC3)c2)no1,9.89%,18.16%
CC(c1ccco1)N(C(=O)CNc1ccc(C#N)cc1)C1CC1 (stereo unspecified),8.078%,8.69%
Cc1ccc(OCCC(=O)NC(C)c2ccncc2)cc1 (stereo unspecified),10.37%,-15.47%
Cn1ccc(C(=O)N2CCC[C@]3(C[C@@H](OCc4ccccn4)CO3)C2)n1.O=C(O)C(F)(F)F,-,-3.608%
O=C(Nc1ccc2c(c1)OCCO2)N1CCCC1c1ccco1 (stereo unspecified),15.76%,28.73%
CCCc1nnc(N2CCC3(CCC(=O)N(C)C3)CC2)o1,6.875%,-8.904%
COc1ccc(C(=O)Nc2nncs2)cn1,5.013%,-17.29%
c1nc(N2CCOCC2)ncc1-c1cncn1CCCN1CCCCC1,17.81%,-
COc1ccc(OCCNCCn2cccn2)cc1,7.639%,-6.982%
Cc1ccc(C(=O)N2CCC3(CC2)C(=O)NCCN3C)cc1O,-0.5115%,12.91%
CCn1c(C)nnc1SCCNC(=O)Cn1cnc2ccccc2c1=O,14.71%,5.986%
Cc1ncnc2c1CCN(Cc1ccc3c(c1)OCO3)CC2,16.5%,-
O=C(O)c1cc(-c2cccs2)nc2c(Br)cnn12,1.892%,-9.488%
CC(CN1CCOC1=O)NC(=O)c1cccc(Cl)c1Cl (stereo unspecified),15.72%,9.6%
O=C(O)C(F)(F)F.[H][C@]12CN(Cc3nccs3)C[C@@]1([H])OCCN(C(=O)c1ccsc1)C2,-,10.37%
Cc1nn(CN(Cc2ccsc2)C2CC2)c(=O)c2noc(C)c12,11.15%,-0.9173%
CCS(=O)(=O)N1CCC2(CCCN(Cc3ccc(F)c(F)c3)C2=O)C1 (stereo unspecified),8.934%,-4.443%
CCN1CCC(NC(=O)CN2CCCCC2Cn2cncn2)CC1 (stereo unspecified),10.6%,-7.629%
CC(c1nc(-c2ccccc2)no1)N1CCc2c(ncn2C2CC2)C1 (stereo unspecified),14.63%,21.25%
Cc1ccc(CN2CCOCC3(CCN(Cc4cccs4)C3)C2)o1.O=C(O)C(F)(F)F.O=C(O)C(F)(F)F (stereo unspecified),-,-11.36%
Cn1c(CN2CCC(O)CC2)nnc1C1CCCN(C(=O)C2CNC2)C1 (stereo unspecified),20.33%,12.46%
COCCNC(=O)NCCS(=O)(=O)N1CCN(c2cccc(C)c2)CC1,13.64%,1.943%
COc1cc(F)c(C(=O)NCc2ccon2)c(F)c1,10.78%,2.353%
COc1cccc(C(O)CNC(=O)CC2CCCCC2)c1 (stereo unspecified),11.57%,9.16%
CCCc1nc(CN(CC)C(=O)c2ccc3ncsc3c2)no1,10.76%,8.055%
O=C(NCC(CO)Cc1ccc(Cl)cc1)c1ccncc1Cl (stereo unspecified),5.516%,7.605%
O=C(CC1CC1)N1C[C@H]2CCN[C@H]2C1,15.38%,-
c1ccc(CN2CCN(C3CCOC4(CCOCC4)C3)CC2)nc1 (stereo unspecified),18.58%,-41.47%
CCCNC(=O)Nc1ccn(CCCOC)n1,1.781%,-2.511%
CN(Cc1ccccc1)CC(O)Cn1cnc2c(Cl)cc(Cl)cc2c1=O (stereo unspecified),12.72%,11.27%

Some entries from above, unchanged:

| structure | LdMetRS | Mtb heat-shock |
|---|---|---|
| `COc1cc(NCC(=O)NC(C)(C#N)C(C)C)cc(OC)c1OC` (stereo unspecified) | -1.003% | -4.476% |
| `CCCNC(=O)Nc1ccn(CCCOC)n1` | 1.781% | -2.511% |
| `O=C(CC1CC1)N1C[C@H]2CCN[C@H]2C1` | 15.38% | - |
| `COCCNC(=O)NCCS(=O)(=O)N1CCN(c2cccc(C)c2)CC1` | 13.64% | 1.943% |
| `O=C(O)C(F)(F)F.[H][C@]12CN(Cc3nccs3)C[C@@]1([H])OCCN(C(=O)c1ccsc1)C2` | - | 10.37% |